Laboratory results taken from the supplement of paper PMC12819154, “High-throughput peptide-centric local stability assay extends protein–ligand identification to membrane proteins, tissues and bacteria” (Nature Structural & Molecular Biology, 2025).
Some of the results follow. Small differences around the control level are noise.

By UniProt entry, the sequences of proteins in these tests, tags left out. Where a name states a change or a piece, a line headed by the entry shows the natural chain unless it says otherwise.
UniProt Q9JI57: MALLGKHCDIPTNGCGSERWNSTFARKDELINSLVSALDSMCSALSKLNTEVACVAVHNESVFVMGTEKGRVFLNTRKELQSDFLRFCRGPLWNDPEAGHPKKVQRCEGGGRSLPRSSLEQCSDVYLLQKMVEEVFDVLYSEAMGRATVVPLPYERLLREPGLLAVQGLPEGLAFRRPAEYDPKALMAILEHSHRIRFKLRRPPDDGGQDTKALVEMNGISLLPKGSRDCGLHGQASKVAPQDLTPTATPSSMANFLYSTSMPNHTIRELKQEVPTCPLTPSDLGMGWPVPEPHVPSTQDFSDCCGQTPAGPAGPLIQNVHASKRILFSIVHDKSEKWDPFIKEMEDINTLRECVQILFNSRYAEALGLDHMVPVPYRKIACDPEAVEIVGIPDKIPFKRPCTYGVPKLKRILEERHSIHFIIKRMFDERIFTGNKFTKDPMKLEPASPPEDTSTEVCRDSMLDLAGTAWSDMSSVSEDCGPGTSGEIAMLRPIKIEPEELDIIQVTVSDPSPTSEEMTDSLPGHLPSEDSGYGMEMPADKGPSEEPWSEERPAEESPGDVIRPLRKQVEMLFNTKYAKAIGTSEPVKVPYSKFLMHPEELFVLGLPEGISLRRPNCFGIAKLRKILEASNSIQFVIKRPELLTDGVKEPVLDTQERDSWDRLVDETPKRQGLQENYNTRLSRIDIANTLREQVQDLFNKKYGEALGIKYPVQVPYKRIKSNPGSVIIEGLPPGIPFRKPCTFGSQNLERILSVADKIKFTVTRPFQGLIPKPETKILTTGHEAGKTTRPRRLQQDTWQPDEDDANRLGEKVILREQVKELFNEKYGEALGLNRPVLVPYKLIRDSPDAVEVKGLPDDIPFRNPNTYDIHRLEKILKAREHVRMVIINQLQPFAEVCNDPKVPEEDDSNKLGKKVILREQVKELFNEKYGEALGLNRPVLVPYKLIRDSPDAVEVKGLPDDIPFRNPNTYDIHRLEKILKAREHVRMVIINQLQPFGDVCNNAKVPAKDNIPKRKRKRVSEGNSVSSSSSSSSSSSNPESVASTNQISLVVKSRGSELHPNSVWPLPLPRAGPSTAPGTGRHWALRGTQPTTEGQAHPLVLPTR
UniProt Q9JJU9, whole entry: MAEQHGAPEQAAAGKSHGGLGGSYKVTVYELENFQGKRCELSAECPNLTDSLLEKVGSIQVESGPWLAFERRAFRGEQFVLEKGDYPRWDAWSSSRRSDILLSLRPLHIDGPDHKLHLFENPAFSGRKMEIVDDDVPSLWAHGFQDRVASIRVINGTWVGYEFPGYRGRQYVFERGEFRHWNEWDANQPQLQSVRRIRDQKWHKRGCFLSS
UniProt Q9JII6: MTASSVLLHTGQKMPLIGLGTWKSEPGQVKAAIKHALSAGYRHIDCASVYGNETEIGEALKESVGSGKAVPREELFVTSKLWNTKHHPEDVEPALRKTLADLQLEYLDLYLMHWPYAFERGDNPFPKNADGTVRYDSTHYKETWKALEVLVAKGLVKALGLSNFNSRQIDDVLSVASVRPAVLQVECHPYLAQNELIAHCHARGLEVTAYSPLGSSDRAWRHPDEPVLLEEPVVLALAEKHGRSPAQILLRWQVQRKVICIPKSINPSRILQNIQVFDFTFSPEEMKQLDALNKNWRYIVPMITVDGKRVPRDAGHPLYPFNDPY
UniProt Q9JJX7: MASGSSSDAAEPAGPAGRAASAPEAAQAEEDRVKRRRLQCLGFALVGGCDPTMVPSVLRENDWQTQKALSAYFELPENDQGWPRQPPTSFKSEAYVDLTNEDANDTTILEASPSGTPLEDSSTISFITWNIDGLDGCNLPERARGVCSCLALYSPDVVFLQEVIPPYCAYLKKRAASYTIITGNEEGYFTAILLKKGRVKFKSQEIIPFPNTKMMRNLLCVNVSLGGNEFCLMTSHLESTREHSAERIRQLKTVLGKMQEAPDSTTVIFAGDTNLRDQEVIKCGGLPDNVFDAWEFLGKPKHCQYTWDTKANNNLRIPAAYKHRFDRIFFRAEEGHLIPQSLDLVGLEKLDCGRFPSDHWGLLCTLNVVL
UniProt Q9JLV5, whole entry: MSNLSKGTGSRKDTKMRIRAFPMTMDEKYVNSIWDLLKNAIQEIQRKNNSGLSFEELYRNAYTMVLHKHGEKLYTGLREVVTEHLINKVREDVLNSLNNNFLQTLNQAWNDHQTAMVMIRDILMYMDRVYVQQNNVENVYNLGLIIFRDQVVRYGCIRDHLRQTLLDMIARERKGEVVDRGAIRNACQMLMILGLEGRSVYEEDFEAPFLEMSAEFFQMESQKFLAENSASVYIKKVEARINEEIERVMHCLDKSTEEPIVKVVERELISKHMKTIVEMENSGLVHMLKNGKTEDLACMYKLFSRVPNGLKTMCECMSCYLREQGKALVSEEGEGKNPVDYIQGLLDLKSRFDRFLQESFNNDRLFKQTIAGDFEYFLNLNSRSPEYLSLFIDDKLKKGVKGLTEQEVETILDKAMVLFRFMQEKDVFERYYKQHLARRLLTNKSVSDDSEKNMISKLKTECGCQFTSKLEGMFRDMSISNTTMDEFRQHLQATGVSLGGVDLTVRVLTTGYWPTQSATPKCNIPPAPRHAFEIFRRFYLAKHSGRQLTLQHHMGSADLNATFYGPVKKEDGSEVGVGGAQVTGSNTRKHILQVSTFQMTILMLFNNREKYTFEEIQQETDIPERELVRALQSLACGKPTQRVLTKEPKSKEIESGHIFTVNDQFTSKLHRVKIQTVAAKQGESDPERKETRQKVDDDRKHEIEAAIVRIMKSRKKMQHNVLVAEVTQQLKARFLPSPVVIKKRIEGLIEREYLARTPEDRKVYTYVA
UniProt Q9JII1: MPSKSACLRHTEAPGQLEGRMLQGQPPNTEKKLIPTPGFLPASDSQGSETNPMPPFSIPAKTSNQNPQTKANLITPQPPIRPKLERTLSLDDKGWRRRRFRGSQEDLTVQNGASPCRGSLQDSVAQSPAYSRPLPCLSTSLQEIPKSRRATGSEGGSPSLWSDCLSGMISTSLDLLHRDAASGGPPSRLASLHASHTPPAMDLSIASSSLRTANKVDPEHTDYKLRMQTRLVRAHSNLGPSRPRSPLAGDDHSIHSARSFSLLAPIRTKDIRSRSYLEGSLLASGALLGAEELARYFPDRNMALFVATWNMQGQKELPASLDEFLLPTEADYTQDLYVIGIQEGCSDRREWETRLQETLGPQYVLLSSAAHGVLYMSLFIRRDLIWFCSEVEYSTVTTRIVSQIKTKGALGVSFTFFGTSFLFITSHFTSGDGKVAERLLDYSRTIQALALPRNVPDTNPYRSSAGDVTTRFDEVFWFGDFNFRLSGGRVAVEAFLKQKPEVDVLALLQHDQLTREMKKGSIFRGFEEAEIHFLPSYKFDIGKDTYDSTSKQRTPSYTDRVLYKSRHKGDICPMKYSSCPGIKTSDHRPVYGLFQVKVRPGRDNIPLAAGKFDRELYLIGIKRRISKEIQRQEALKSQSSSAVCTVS
UniProt Q9QXB9: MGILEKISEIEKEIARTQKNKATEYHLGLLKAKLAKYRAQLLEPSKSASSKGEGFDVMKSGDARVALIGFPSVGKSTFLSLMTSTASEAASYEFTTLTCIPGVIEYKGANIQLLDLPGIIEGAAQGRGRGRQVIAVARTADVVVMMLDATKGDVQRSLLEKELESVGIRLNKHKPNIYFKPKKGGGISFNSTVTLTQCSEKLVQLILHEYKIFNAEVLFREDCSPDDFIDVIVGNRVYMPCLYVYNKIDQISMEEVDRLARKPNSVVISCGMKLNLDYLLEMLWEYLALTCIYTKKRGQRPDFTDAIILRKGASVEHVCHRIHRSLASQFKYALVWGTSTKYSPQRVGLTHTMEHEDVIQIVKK
UniProt Q9ESW8: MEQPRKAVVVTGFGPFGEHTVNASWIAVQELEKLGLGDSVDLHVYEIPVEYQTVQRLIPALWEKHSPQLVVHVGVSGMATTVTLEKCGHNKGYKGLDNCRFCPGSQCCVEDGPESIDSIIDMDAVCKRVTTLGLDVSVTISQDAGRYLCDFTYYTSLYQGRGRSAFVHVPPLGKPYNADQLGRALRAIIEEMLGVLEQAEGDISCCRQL
UniProt Q9QUI1: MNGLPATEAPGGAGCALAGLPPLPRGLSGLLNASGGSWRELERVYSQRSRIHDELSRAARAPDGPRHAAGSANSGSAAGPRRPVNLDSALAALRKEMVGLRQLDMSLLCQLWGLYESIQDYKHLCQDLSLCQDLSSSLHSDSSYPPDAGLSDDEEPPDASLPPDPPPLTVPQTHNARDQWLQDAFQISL
UniProt Q9JHN8: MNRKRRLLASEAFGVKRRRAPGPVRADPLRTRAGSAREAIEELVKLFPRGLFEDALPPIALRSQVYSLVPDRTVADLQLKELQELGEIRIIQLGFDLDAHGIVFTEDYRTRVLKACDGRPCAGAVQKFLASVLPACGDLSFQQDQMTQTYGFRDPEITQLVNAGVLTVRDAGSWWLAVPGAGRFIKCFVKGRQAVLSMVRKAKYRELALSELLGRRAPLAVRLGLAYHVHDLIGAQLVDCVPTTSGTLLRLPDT
UniProt Q9QUK4, whole entry: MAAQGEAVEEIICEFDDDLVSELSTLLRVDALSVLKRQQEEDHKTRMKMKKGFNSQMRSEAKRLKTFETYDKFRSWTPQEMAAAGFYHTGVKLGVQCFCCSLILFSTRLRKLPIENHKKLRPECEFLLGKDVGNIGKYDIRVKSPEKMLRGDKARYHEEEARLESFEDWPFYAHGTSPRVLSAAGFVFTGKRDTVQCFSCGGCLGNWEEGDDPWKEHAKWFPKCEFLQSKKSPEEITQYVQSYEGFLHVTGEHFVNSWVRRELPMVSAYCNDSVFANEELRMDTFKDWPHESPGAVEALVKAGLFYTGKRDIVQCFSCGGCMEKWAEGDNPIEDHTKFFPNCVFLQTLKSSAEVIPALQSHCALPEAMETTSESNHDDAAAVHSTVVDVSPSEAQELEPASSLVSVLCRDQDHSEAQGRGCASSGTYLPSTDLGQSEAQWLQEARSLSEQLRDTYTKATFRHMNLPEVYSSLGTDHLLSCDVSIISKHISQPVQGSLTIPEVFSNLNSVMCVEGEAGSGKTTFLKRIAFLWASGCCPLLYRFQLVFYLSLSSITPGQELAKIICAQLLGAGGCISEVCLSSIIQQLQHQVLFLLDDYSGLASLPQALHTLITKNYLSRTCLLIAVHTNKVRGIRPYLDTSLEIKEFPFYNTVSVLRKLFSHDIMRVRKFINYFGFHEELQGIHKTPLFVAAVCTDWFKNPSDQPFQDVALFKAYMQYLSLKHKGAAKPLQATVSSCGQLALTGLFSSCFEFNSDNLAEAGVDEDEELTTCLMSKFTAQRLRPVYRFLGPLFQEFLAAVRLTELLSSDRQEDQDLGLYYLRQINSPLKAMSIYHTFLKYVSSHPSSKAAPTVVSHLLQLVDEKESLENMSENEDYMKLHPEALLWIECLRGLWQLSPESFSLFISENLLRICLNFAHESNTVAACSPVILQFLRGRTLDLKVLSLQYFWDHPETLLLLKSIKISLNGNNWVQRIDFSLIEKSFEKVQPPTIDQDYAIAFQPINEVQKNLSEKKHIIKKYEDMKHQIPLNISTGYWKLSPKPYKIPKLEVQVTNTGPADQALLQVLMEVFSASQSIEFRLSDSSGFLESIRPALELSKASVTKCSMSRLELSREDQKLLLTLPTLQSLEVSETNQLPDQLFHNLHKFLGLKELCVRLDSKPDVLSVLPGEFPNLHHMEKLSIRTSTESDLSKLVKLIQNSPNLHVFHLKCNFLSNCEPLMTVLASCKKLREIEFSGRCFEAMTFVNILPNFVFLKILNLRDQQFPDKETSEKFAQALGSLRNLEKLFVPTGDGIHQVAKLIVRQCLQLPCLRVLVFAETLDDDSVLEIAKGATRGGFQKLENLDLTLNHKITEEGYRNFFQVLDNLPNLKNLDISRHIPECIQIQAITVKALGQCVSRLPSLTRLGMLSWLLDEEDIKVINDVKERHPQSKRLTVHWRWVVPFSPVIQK
UniProt Q9JJL3: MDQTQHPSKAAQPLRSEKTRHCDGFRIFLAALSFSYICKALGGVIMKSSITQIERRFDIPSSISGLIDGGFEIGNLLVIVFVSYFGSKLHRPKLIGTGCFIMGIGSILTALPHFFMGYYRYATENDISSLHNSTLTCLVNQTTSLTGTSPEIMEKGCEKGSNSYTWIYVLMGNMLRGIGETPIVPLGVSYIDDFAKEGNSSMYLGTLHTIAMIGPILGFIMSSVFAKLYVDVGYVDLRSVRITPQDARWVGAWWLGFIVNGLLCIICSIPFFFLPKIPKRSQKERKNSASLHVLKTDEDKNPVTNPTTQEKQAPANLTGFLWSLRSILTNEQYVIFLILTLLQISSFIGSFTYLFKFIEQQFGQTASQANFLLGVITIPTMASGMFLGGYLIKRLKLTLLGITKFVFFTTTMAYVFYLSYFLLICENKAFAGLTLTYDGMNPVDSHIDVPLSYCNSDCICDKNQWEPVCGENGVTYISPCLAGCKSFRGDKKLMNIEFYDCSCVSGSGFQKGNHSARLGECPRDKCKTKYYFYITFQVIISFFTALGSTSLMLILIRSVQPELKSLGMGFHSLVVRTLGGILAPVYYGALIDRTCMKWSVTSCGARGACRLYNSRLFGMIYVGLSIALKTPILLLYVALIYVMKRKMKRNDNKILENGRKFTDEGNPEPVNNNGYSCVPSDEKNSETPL

These targets were tested with CN[C@@H]1C[C@H]2O[C@@](C)([C@@H]1OC)n1c3ccccc3c3c4c(c5c6ccccc6n2c5c31)C(=O)NC4 [staurosporine] (assay: log2 fold change of tryptic peptide abundance, ligand vs vehicle (limited proteolysis) (log2 ratio); higher = more trypsin-susceptible (destabilized)). Settings: ligand concentration: 20 uM; sample: mouse liver crude lysate; replicate design: treated separately.

| Target | log2 fold change |
| --- | --- |
| UniProt Q9JLI8 (peptide sequence: KVPEKPEVR, peptide start residue: 882) | 0.231 |
| UniProt Q9JK30 (peptide sequence: TDLYHLQK, peptide start residue: 531) | 0.0959 |
| UniProt Q9JL60 (peptide sequence: FVCPGINVK, peptide start residue: 108) | -0.132 |
| UniProt Q9JI57 (peptide sequence: YGEALGLNRPVLVPYK, peptide start residue: 826) | -0.0241 |
| UniProt Q9JLB9 (peptide sequence: STQTVAVHHPQYGFSVQGDYQGR, peptide start residue: 98) | 0.219 |
| UniProt Q9JHI0 (peptide sequence: AALHQAFK, peptide start residue: 128) | -0.605 |
| UniProt Q9ESU6 (peptide sequence: DVPDSQQHPGPEK, peptide start residue: 335) | 0.428 |
| UniProt Q9ESF1 (peptide sequence: KAKIDELK, peptide start residue: 1402) | -0.101 |
| UniProt Q9JM76 (peptide sequence: WWTCFVK, peptide start residue: 159) | 0.254 |
| UniProt Q9JJU9 (peptide sequence: LHLFENPAFSGR, peptide start residue: 116) | -0.194 |
| UniProt Q9JIY5 (peptide sequence: VILGSPAHR, peptide start residue: 396) | -0.529 |
| UniProt Q9JJZ2 (peptide sequence: DVNVAIAAIK, peptide start residue: 327) | -0.112 |
| UniProt Q9JJN6 (peptide sequence: VLLMLRK, peptide start residue: 22) | 0.341 |
| UniProt Q9JII6 (peptide sequence: AVPREELFVTSK, peptide start residue: 69) | -0.435 |
| UniProt Q9JJX7 (peptide sequence: AEEGHLIPQSLDLVGLEK, peptide start residue: 332) | 0.363 |
| UniProt Q9JLG8 (peptide sequence: TAGLVATEPAR, peptide start residue: 110) | -0.143 |
| UniProt Q9JLV5 (peptide sequence: TECGCQFTSK, peptide start residue: 460) | -0.956 |
| UniProt Q9JII1 (peptide sequence: TANKVDPEHTDYK, peptide start residue: 212) | 0.294 |

Reprinted from the results shown (two entries):

| Target | log2 fold change |
| --- | --- |
| UniProt Q9JL60 (peptide sequence: FVCPGINVK, peptide start residue: 108) | -0.132 |
| UniProt Q9JI57 (peptide sequence: YGEALGLNRPVLVPYK, peptide start residue: 826) | -0.0241 |

(cont.)

| Target | log2 fold change |
| --- | --- |
| UniProt Q9ESN9 (peptide sequence: HTEMIQTYVEHIER, peptide start residue: 168) | 0.764 |
| UniProt Q9QXB9 (peptide sequence: KPNSVVISCGMK, peptide start residue: 262) | 0.276 |
| UniProt Q9JIX8 (peptide sequence: APTFSASVR, peptide start residue: 697) | 0.235 |
| UniProt Q9JLZ3 (peptide sequence: EFLPQGPVAMR, peptide start residue: 252) | -0.185 |
| UniProt Q9ESW8 (peptide sequence: LIPALWEK, peptide start residue: 57) | -0.0474 |
| UniProt Q9JI19 (peptide sequence: TFHMLER, peptide start residue: 62) | -0.105 |
| UniProt Q9JIS5 (peptide sequence: MADGAPLAGVR, peptide start residue: 113) | -0.138 |
| UniProt Q9ERU3 (peptide sequence: NVDEKPYK, peptide start residue: 49) | -0.289 |
| UniProt Q9JLV2 (peptide sequence: KEPAESSFR, peptide start residue: 524) | 0.204 |
| UniProt Q9JHT5 (peptide sequence: AGELGLGGAGTR, peptide start residue: 41) | 0.209 |
| UniProt Q9JIL4 (peptide sequence: KGVYLTDIMPQGVAMK, peptide start residue: 156) | -0.292 |
| UniProt Q9QUK9 (peptide sequence: TLNNDIMLIK, peptide start residue: 103) | 0.0565 |
| UniProt Q9QUI1 (peptide sequence: IHDELSR, peptide start residue: 51) | -0.501 |
| UniProt Q9ET01 (peptide sequence: TFAYTNHTVLPEALER, peptide start residue: 372) | -0.646 |
| UniProt Q9JHK4 (peptide sequence: FLVENSVLK, peptide start residue: 429) | -0.36 |
| UniProt Q9JHN8 (peptide sequence: ELALSELLGR, peptide start residue: 206) | 0.207 |
| UniProt Q9QUK4 (peptide sequence: LFVPTGDGIHQVAK, peptide start residue: 1284) | 0.378 |
| UniProt Q9JJL3 (peptide sequence: NSASLHVLK, peptide start residue: 287) | -0.12 |
